Data: patent US5215892
The exact form of at least one protein or probe is not confirmed.

Sequences of proteins named here, by UniProt entry; tags and fusion partners are left off. A line that says so, or that is headed by a name, gives the form on record, which may keep a tag or linker.
UniProt P17676, other isoform, or with tags, fused parts or gaps: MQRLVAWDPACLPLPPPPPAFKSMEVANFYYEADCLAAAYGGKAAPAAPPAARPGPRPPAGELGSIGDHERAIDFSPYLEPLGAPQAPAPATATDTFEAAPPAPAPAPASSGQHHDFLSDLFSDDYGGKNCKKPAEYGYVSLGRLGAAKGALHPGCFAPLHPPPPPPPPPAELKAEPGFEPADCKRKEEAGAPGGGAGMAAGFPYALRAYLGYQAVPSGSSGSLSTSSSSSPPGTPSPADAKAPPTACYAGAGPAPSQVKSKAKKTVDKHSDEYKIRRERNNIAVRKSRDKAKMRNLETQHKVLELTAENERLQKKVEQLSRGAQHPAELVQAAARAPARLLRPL

Molecular target: C/EBP2 (NF-IL6), full length (Homo sapiens) (UniProt P17676)
Assay: activity in cells
Conditions: CAT reporter activated only on cotransfection with CMV-NFIL6(+); protein in cells; protein details: CMV-NFIL6(+) expressed in Jurkat cells; only the site is given

Sequence: AGATTGCACAATCTGATCAGATTGCACAATCTGATCGATTCGACAATCT (double strand) [IL-1RE 3 copies of 14 bp palindrome (IL-1RE-K9CAT reporter)]
- activity on this sequence: active
